Consider 28 targets from the supplement of paper PMC12819154, “High-throughput peptide-centric local stability assay extends protein–ligand identification to membrane proteins, tissues and bacteria” (Nature Structural & Molecular Biology, 2025).

Chains of the proteins cited; added tags and fusions are not shown. Lines headed by an entry give the natural chain unless they say otherwise; changes in a name come on top.
UniProt Q5VYV7: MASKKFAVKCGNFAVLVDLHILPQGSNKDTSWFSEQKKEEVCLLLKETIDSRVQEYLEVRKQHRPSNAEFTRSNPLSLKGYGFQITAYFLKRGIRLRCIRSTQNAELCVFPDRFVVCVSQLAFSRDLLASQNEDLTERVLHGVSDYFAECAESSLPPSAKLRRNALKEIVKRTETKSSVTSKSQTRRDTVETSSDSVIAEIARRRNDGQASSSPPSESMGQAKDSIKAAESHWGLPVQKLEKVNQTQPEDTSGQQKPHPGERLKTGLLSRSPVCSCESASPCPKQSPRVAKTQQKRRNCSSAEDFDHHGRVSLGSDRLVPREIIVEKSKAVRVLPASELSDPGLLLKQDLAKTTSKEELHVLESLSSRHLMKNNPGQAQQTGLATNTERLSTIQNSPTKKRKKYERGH
UniProt Q6PF06: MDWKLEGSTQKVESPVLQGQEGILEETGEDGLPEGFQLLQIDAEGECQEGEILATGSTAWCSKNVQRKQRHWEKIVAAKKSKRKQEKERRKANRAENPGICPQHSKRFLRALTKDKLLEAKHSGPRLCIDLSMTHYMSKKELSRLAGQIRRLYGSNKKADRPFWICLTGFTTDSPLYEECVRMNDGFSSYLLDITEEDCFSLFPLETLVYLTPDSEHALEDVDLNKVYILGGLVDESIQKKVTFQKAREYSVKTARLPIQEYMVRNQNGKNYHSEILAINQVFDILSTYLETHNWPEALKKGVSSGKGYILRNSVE
UniProt Q6P1M9: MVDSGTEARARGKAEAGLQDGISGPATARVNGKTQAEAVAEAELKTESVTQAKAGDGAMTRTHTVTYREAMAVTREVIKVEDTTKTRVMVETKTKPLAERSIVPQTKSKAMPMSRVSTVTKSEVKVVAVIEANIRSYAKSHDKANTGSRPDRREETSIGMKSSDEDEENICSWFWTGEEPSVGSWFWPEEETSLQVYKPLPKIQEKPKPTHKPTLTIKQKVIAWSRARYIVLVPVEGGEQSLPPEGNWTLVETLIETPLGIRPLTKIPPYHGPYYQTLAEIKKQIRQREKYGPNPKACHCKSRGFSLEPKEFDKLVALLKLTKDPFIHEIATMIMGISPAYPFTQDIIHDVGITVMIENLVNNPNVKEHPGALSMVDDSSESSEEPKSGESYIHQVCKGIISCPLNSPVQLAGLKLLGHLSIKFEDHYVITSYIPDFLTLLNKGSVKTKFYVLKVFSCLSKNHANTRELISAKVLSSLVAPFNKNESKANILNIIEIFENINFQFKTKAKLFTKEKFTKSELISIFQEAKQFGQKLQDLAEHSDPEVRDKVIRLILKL
UniProt Q68DN1: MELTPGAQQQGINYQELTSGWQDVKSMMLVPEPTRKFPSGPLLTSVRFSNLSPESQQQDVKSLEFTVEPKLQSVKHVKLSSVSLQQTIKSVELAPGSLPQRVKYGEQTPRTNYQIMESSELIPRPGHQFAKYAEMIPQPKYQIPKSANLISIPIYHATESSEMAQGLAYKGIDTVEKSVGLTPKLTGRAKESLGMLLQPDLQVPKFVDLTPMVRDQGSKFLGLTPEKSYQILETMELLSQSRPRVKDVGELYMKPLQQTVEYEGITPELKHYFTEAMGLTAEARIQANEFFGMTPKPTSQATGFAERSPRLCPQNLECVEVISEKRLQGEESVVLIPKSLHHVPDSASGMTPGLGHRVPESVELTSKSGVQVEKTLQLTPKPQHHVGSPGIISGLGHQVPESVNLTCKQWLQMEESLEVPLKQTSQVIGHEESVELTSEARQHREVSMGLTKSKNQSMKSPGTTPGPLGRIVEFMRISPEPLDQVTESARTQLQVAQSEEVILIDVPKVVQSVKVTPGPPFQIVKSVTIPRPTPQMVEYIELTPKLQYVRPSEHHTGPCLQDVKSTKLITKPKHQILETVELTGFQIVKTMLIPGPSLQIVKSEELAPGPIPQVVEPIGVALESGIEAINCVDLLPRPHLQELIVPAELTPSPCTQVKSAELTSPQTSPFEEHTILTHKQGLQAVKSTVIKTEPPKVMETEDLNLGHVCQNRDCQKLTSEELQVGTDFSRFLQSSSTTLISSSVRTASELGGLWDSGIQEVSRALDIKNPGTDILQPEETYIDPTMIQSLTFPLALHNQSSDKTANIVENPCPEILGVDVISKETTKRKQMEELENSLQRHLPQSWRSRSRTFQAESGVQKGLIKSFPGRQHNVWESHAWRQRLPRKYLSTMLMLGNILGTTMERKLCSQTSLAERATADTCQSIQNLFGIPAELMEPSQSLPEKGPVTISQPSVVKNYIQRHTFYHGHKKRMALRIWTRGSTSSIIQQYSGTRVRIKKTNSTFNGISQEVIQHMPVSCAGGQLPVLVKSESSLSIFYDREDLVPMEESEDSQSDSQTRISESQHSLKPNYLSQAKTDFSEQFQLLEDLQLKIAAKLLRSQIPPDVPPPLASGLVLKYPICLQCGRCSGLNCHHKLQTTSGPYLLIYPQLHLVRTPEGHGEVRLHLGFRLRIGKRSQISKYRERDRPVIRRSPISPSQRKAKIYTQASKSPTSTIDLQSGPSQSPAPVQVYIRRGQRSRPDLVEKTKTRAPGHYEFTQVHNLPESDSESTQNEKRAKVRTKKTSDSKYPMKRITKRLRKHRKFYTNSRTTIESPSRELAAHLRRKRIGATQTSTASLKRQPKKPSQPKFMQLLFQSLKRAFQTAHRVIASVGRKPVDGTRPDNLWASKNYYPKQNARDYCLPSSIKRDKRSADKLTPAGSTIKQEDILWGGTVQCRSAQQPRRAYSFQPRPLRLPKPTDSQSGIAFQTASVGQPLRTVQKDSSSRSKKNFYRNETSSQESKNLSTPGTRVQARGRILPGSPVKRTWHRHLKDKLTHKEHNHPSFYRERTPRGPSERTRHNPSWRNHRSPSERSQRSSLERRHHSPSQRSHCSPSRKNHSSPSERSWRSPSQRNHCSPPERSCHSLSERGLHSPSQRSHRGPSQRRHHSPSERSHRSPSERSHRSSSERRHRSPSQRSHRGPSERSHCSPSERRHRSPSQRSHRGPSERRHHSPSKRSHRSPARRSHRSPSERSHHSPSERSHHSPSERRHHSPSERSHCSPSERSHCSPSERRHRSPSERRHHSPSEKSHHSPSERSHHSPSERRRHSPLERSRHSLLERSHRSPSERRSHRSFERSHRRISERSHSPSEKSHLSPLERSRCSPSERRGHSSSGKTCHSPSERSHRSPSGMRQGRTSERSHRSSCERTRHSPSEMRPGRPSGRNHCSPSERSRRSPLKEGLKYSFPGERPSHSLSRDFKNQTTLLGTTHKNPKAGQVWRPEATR
UniProt Q6AI12: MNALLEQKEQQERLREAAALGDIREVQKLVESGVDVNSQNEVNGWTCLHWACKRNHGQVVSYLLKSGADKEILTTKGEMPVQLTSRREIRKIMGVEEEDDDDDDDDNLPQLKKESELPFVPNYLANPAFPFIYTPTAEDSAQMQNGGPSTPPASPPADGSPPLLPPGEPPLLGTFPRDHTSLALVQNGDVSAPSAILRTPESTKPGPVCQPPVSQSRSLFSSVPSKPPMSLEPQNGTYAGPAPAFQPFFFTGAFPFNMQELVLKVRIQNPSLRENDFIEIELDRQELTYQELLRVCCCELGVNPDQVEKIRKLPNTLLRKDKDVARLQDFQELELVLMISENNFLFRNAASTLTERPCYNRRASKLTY
UniProt Q676U5: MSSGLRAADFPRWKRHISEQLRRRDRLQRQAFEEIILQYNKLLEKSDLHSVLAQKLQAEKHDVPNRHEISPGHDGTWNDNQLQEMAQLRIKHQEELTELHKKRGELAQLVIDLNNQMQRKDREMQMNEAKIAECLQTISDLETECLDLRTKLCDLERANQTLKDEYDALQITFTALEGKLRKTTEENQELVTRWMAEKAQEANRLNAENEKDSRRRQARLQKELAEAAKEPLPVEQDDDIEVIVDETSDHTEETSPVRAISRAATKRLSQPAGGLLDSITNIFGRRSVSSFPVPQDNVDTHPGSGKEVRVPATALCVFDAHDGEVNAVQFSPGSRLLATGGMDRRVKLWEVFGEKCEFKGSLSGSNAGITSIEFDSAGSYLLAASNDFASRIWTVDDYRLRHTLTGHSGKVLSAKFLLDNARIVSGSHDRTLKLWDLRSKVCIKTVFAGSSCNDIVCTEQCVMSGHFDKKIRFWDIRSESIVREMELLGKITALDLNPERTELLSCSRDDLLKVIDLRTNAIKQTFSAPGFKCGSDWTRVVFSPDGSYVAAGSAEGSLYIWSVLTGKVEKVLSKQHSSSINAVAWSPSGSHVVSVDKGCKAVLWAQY
UniProt Q5VWJ9: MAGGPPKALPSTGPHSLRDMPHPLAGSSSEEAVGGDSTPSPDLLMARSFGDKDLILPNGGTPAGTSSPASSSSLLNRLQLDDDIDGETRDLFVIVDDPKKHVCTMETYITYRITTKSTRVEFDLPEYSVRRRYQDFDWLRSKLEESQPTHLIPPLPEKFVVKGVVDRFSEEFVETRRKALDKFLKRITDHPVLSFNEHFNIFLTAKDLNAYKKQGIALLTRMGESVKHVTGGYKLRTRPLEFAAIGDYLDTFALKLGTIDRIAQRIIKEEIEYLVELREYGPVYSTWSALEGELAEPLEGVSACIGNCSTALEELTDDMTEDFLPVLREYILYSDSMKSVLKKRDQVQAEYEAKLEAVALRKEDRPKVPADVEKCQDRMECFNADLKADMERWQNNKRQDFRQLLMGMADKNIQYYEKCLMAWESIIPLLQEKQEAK
UniProt Q6P582, whole entry: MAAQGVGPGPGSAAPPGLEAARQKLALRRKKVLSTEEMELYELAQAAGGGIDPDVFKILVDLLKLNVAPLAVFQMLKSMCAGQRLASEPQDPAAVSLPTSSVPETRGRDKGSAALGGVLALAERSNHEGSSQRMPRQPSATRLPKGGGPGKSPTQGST
UniProt Q6UWE0: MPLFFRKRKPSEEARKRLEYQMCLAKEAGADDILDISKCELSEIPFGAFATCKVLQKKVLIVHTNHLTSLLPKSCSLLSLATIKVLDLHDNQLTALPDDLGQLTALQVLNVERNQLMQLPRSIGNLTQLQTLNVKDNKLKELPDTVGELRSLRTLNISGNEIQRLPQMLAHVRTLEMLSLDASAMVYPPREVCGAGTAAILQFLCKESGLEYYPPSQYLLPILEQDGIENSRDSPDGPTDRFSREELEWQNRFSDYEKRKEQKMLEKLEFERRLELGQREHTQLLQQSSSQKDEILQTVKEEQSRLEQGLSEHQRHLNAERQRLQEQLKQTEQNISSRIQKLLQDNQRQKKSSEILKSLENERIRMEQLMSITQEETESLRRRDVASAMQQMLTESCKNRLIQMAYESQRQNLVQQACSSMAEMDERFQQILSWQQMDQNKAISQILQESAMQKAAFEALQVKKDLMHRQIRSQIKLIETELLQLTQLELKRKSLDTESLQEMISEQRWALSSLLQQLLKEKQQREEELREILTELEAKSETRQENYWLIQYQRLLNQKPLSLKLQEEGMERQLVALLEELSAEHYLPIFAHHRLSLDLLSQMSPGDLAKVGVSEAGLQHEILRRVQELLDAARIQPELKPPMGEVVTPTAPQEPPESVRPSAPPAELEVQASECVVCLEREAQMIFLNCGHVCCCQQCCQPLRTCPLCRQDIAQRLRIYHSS
UniProt Q6P1M0: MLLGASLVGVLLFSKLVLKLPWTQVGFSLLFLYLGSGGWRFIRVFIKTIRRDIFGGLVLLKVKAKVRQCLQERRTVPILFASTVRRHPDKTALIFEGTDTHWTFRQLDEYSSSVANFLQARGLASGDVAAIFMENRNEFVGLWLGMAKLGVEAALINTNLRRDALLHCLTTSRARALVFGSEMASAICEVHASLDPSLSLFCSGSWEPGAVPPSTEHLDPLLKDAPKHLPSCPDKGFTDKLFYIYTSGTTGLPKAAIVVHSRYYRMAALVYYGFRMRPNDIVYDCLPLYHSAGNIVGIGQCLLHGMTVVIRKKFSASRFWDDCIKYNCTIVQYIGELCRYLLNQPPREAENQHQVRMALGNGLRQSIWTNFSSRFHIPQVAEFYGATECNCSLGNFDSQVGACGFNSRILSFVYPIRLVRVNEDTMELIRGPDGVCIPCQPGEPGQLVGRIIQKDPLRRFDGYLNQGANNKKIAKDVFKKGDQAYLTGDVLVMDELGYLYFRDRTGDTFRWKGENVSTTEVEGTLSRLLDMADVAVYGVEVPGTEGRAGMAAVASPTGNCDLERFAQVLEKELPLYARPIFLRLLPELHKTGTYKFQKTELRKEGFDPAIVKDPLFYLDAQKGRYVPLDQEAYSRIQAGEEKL
UniProt Q5VUJ9: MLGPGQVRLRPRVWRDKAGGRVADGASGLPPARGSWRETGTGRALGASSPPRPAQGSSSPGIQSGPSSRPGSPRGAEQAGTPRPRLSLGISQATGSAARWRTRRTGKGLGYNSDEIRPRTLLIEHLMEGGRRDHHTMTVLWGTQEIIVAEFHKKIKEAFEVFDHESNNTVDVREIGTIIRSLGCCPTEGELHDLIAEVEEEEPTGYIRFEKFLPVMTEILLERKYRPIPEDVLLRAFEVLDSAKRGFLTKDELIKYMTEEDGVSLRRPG

Some of the results follow. Most values lie at the level of the controls, where differences are scatter.

Compound in the assay: Cc1nc(Nc2ncc(C(=O)Nc3c(C)cccc3Cl)s2)cc(N2CCN(CCO)CC2)n1 [dasatinib]
In words: log2 fold change of tryptic peptide abundance, ligand vs vehicle (limited proteolysis) (log2 ratio); higher = more trypsin-susceptible (destabilized). The conditions noted are these: ligand concentration: 5 uM; sample: K562 cleared lysate.
On to “UniProt Q6NW34 (peptide sequence: ATQETSFDFKCSQSR, peptide start residue: 323)”, for which the log2 fold change was 0.508.

With “KANK2 (peptide sequence: QECQLSR, peptide start residue: 560) (UniProt Q63ZY3)”, the log2 fold change was 0.344. Take “UniProt Q6ICL3 (peptide sequence: LILAANRDEFYSRPSK, peptide start residue: 20)”: the log2 fold change was 0.305. The result for “UniProt Q5VT97 (peptide sequence: HYSFSDQPK, peptide start residue: 665)” reads -0.493; that for “UniProt Q64LD2 (peptide sequence: HGSCEDPGGYRLPLAQLGR, peptide start residue: 67)”, -0.247; that for “UniProt Q6IN85 (peptide sequence: GTGHVSSGYVER, peptide start residue: 23)”, 0.255. The result for “SLX4IP (peptide sequence: NCSSAEDFDHHGR, peptide start residue: 298) (UniProt Q5VYV7)” reads -0.264; that for “UniProt Q5VV17 (peptide sequence: LLLHGPDPVPGAAGSAAAPR, peptide start residue: 124)”, 0.105; that for “UHRF1BP1 (peptide sequence: EALHATMDLTK, peptide start residue: 1031) (UniProt Q6BDS2)”, 0.216. Regarding “KAZN (peptide sequence: VQLAQKEQELAR, peptide start residue: 122) (UniProt Q674X7)”, the log2 fold change is 0.172.

Regarding “MRPL14 (peptide sequence: ALIVGHCMPGPR, peptide start residue: 84) (UniProt Q6P1L8)”, the log2 fold change was -0.0578. The result for “TRMT10B (peptide sequence: AENPGICPQHSKR, peptide start residue: 95) (UniProt Q6PF06)” reads -0.362; that for “ARMCX5 (peptide sequence: SELISIFQEAK, peptide start residue: 520) (UniProt Q6P1M9)”, 0.188; that for “MSL1 (peptide sequence: KLKEPGPPLASSQGGSPAPSPAGCGGK, peptide start residue: 51) (UniProt Q68DK7)”, 0.946.

Regarding “BLOC1S2 (peptide sequence: LLENMNK, peptide start residue: 65) (UniProt Q6QNY1)”, the log2 fold change is -0.0913.

With “UniProt Q5W0B1 (peptide sequence: VKDDVDKLK, peptide start residue: 174)”, the log2 fold change is -0.382. As to “UniProt Q68DN1 (peptide sequence: HRSPSER, peptide start residue: 1566)”, the log2 fold change was -0.109. The result for “ANKRD40 (peptide sequence: NAASTLTERPCYNR, peptide start residue: 348) (UniProt Q6AI12)” reads -0.341; that for “ATG16L1 (peptide sequence: SVSSFPVPQDNVDTHPGSGKEVR, peptide start residue: 287) (UniProt Q676U5)”, -0.397.

As for “SNX30 (peptide sequence: ALPSTGPHSLR, peptide start residue: 8) (UniProt Q5VWJ9)”, the log2 fold change was -0.275.

Regarding “UniProt Q6NZI2 (peptide sequence: SLKESEALPEK, peptide start residue: 171)”, the log2 fold change was determined as 0.386.

Consider “SWSAP1 (peptide sequence: GTGTTLDPMR, peptide start residue: 51) (UniProt Q6NVH7)”, for which the log2 fold change was found to be 0.329. The result for “UniProt Q6P582 (peptide sequence: GSAALGGVLALAER, peptide start residue: 111)” reads 0.0948. Next, “CRTC3 (peptide sequence: RQPPVSPLTLSPGPEAHQGFSR, peptide start residue: 386) (UniProt Q6UUV7)”: -0.381; “LRSAM1 (peptide sequence: DSPDGPTDR, peptide start residue: 233) (UniProt Q6UWE0)”: 0.149; “MAST2 (peptide sequence: TPSEEDFETIK, peptide start residue: 506) (UniProt Q6P0Q8)”: -0.23. The result for “SLC27A4 (peptide sequence: ILSFVYPIR, peptide start residue: 409) (UniProt Q6P1M0)” reads -0.116. Regarding “EFCAB2 (peptide sequence: GFLTKDELIK, peptide start residue: 246) (UniProt Q5VUJ9)”, the log2 fold change came to 0.503.
